{"source": "PubChem BioAssay AID248", "about": "(DTP/NCI, 2004)", "tested_on": "L1210 leukemia ip in BDF1 mice, survival T/C", "test": "NCI In Vivo Anticancer Drug Screen. Data for tumor model L1210 Leukemia (intraperitoneal) in B6D2F1 (BDF1) mice", "details": "T/C endpoint: mean survival time, higher T/C = longer survival", "key": {"[1]": {"details": "dose: 100.0 mg/kg/injection, schedule: Q04DX003 (ip), vehicle: saline with Tween-80"}, "[2]": {"details": "dose: 200.0 mg/kg/injection, schedule: Q04DX003 (ip), vehicle: saline with Tween-80"}, "[3]": {"details": "dose: 400.0 mg/kg/injection, schedule: Q04DX003 (ip), vehicle: saline with Tween-80"}, "[4]": {"details": "dose: 400.0 mg/kg/injection, schedule: Q04DX003 (ip), vehicle: Klucel (hydroxypropylcellulose) (HPC)"}, "[5]": {"details": "dose: 100.0 mg/kg/injection, schedule: Q01DX009 (ip), vehicle: Klucel (hydroxypropylcellulose) (HPC)"}}, "note": "The list shows only some results of the screen, not a fair sample: it is rich in T/C values a quarter to a half above the control, in often repeated tests (any T/C) and in doses without a T/C. Further doses and runs are listed elsewhere. T/C is the treated group as % of the vehicle group. Some entries give survivors of the animals treated and no T/C: the source holds a T/C of zero for them, seemingly a mark for toxic or unscored doses. Some doses without a T/C left all or most animals alive at the check, yet need not have been tolerated: survival well below the control is almost never listed, so the zero probably covers shortened survival too. Counts of survivors are from the toxicity check (mostly the fifth day) where no day follows; animals may have died later. Schedules are NCI's codes, read here as Q, the interval in days (D) or hours (H), X, the number of doses. Some schedules carry Z or #; the key to these is not given. For survival time, this PubChem deposit counts one and a half times the control or more as active, and values a quarter to a half above the control carry no call in these data; other NCI protocols may use other cut-offs. Some T/C values are followed by the survivors on the day toxicity was checked, most often the fifth; without a count, all were alive then.", "data": [{"smiles": "CCc1nc(N)nc(N)c1-c1ccc(Cl)cc1", "values": [{"measurement": "T/C", "setting": "dose: 50.0 mg/kg/injection, schedule: Q01DX Z (ip), vehicle: carboxymethylcellulose (CMC)", "result": "132 % of control [4 of 6 alive]"}, {"measurement": "T/C", "setting": "dose: 100.0 mg/kg/injection, schedule: Q01DX015 (ip), vehicle: carboxymethylcellulose (CMC)", "result": "127 % of control"}]}, {"smiles": "CCOc1c(Cl)cc(Cl)cc1C(c1ccccc1S(=O)(=O)O)c1cc(Cl)cc(Cl)c1OCC", "values": [{"measurement": "survivor count", "setting": "[1]", "result": "1 of 6"}, {"measurement": "survivor count", "setting": "[2]", "result": "0 of 6"}, {"measurement": "survivor count", "setting": "[3]", "result": "0 of 6"}]}, {"smiles": "CC(S)CN1CC1", "note": "(stereo not given)", "values": [{"measurement": "survivor count", "setting": "[4]", "result": "2 of 6"}]}, {"smiles": "NC(COC(c1ccccc1)(c1ccccc1)c1ccccc1)C(=O)O", "note": "(stereo not given)", "values": [{"measurement": "T/C", "setting": "dose: 50.0 mg/kg/injection, schedule: Q01DX009 (ip), vehicle: other", "result": "127 % of control"}, {"measurement": "T/C", "setting": "dose: 100.0 mg/kg/injection, schedule: Q01DX009 (ip), vehicle: other", "result": "142 % of control"}, {"measurement": "survivor count", "setting": "dose: 400.0 mg/kg/injection, schedule: Q01DX009 (ip), vehicle: other", "result": "0 of 6"}]}, {"smiles": "CCOC(=O)C(CCSC)(CCN(C)Cc1ccccc1)C(=O)OCC", "values": [{"measurement": "survivor count", "setting": "dose: 200.0 mg/kg/injection, schedule: Q01DX001 (ip), vehicle: saline", "result": "1 of 4"}, {"measurement": "survivor count", "setting": "dose: 400.0 mg/kg/injection, schedule: Q01DX001 (ip), vehicle: saline", "result": "2 of 4"}]}, {"smiles": "CCCNC(Cc1ccccc1)c1ccco1", "note": "(stereo not given)", "values": [{"measurement": "survivor count", "setting": "dose: 200.0 mg/kg/injection, schedule: Q01DX009 (ip), vehicle: saline", "result": "0 of 3"}, {"measurement": "survivor count", "setting": "dose: 400.0 mg/kg/injection, schedule: Q04DX002 (ip), vehicle: saline", "result": "3 of 3"}]}, {"smiles": "CCCC/C=C/CCCC", "values": [{"measurement": "survivor count", "setting": "dose: 150.0 mg/kg/injection, schedule: Q01DX009 (ip), vehicle: saline", "result": "6 of 6"}]}, {"smiles": "Cc1ccc(C)c(/C(=N\\N=C(N)N)C2CC2)c1", "values": [{"measurement": "survivor count", "setting": "dose: 120.0 mg/kg/injection, schedule: Q01DX Z (ip), vehicle: methylcellulose (MC)", "result": "2 of 6"}, {"measurement": "survivor count", "setting": "dose: 240.0 mg/kg/injection, schedule: Q01DX Z (oral), vehicle: methylcellulose (MC)", "result": "4 of 6"}]}, {"smiles": "Cc1ccc(S(=O)(=O)N/N=C/C(Br)=C(/Br)C(=O)O)cc1", "values": [{"measurement": "T/C", "setting": "[5]", "result": "145 % of control"}, {"measurement": "survivor count", "setting": "dose: 200.0 mg/kg/injection, schedule: Q01DX009 (ip), vehicle: Klucel (hydroxypropylcellulose) (HPC)", "result": "4 of 6"}]}, {"smiles": "CCCc1c(O)ccc(C)c1C", "values": [{"measurement": "survivor count", "setting": "dose: 400.0 mg/kg/injection, schedule: Q01DX001 (ip), vehicle: other", "result": "1 of 4"}]}, {"smiles": "COC(=O)C(Cc1ccccc1)NC(=O)C(C)NC(=O)OCc1ccccc1", "note": "(stereo not given)", "values": [{"measurement": "T/C", "setting": "dose: 200.0 mg/kg/injection, schedule: Q04DX002 (ip), vehicle: Klucel (hydroxypropylcellulose) (HPC)", "result": "130 % of control"}]}, {"smiles": "O=C(c1ccccc1)c1cc(Cl)ccc1NC(=O)C(Cl)(Cl)Cl", "values": [{"measurement": "survivor count", "setting": "dose: 100.0 mg/kg/injection, schedule: Q01DX001 (ip), vehicle: saline with Tween-80", "result": "6 of 6"}, {"measurement": "survivor count", "setting": "dose: 200.0 mg/kg/injection, schedule: Q01DX001 (ip), vehicle: saline with Tween-80", "result": "6 of 6"}, {"measurement": "survivor count", "setting": "dose: 400.0 mg/kg/injection, schedule: Q01DX001 (ip), vehicle: saline with Tween-80", "result": "6 of 6"}]}, {"smiles": "O=C(NCCCCCCCNC(=O)Nc1ccc(C2=NCCN2)cc1)Nc1ccc(C2=NCCN2)cc1", "values": [{"measurement": "survivor count", "setting": "dose: 500.0 mg/kg/injection, schedule: Q01DX Z (ip), vehicle: carboxymethylcellulose (CMC)", "result": "3 of 6"}]}, {"smiles": "C=CCOC1C=CC=CC=C1", "values": [{"measurement": "survivor count", "setting": "[5]", "result": "0 of 6"}, {"measurement": "survivor count", "setting": "dose: 200.0 mg/kg/injection, schedule: Q04DX003 (ip), vehicle: Klucel (hydroxypropylcellulose) (HPC)", "result": "0 of 6"}, {"measurement": "survivor count", "setting": "[4]", "result": "0 of 6"}]}, {"smiles": "CC/C(=N\\N=C(N)N)c1ccc(NC(N)=S)cc1", "values": [{"measurement": "T/C", "setting": "dose: 20.0 mg/kg/injection, schedule: Q01DX009 (ip), vehicle: saline", "result": "137 % of control"}, {"measurement": "survivor count", "setting": "dose: 160.0 mg/kg/injection, schedule: Q01DX009 (ip), vehicle: saline", "result": "3 of 6"}, {"measurement": "survivor count", "setting": "dose: 320.0 mg/kg/injection, schedule: Q01DX009 (ip), vehicle: saline", "result": "0 of 6"}]}, {"smiles": "C=[CH][Pb]([CH]=C)([O]C(=O)C(C)C)[O]C(=O)C(C)C", "values": [{"measurement": "survivor count", "setting": "[1]", "result": "0 of 6"}, {"measurement": "survivor count", "setting": "[2]", "result": "0 of 6"}, {"measurement": "survivor count", "setting": "[3]", "result": "0 of 6"}]}, {"smiles": "CN(C)C(=S)[S][Sb]([S]C(=S)N(C)C)[c]1ccccc1", "values": [{"measurement": "survivor count", "setting": "dose: 400.0 mg/kg/injection, schedule: Q01DX001 (ip), vehicle: steroid suspending solution", "result": "2 of 4"}]}, {"smiles": "O=[N+]([O-])/C(Br)=C\\c1ccc([N+](=O)[O-])cc1", "values": [{"measurement": "survivor count", "setting": "dose: 300.0 mg/kg/injection, schedule: Q01DX001 (ip), vehicle: carboxymethylcellulose (CMC)", "result": "0 of 6"}]}]}
